Assay results published in the supplement of paper PMC8728848.
This is one part of the list.

Legend:
Assay in all cases: glycan array binding signal (z-score within array); higher = stronger binding
Conditions in all cases: glycan notation: IUPAC condensed, linker removed
[1] = molecular target: Neu5Ac(a2-3)Gal(b1-3)GlcNAc6S
How it was run: (§1)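 From the Consortium for Functional Glycomics database, 3228 arrays were curated, keeping only those whose protein sequence was available. Binding is given as a within-array Z-score averaged across arrays sharing a protein sequence and across linkers. Negative Z-scores can be read as non-binding.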

[2] = molecular target: Neu5Ac(a2-3)Gal(b1-3)[Fuc(a1-4)]GlcNAc
How it was run: as §1

[3] = molecular target: Neu5Ac(a2-3)Gal(b1-3)[Fuc(a1-4)]GlcNAc(b1-3)Gal(b1-3)[Fuc(a1-4)]GlcNAc
How it was run: as §1

[4] = molecular target: Neu5Ac(a2-3)Gal(b1-3)[Fuc(a1-4)]GlcNAc(b1-3)Gal(b1-4)[Fuc(a1-3)]GlcNAc
How it was run: as §1

[5] = molecular target: Neu5Ac(a2-3)Gal(b1-3)[GlcNAc(b1-6)]GalNAc
How it was run: as §1

[6] = molecular target: Neu5Ac(a2-3)Gal(b1-3)[Neu5Ac(a2-6)]GalNAc
How it was run: as §1

[7] = molecular target: Neu5Ac(a2-3)Gal(b1-3)[Neu5Ac(a2-6)]GlcNAc(b1-3)[Fuc(a1-3)[Gal(b1-4)]GlcNAc(b1-6)]Gal(b1-4)Glc
How it was run: as §1

[8] = molecular target: Neu5Ac(a2-3)Gal(b1-3)]Neu5Ac(a2-3)Gal(b1-4)]GlcNAc
How it was run: as §1

Neu5Ac(a2-3)Gal(b1-4)Glc = molecular target: Neu5Ac(a2-3)Gal(b1-4)Glc
How it was run: as §1

[9] = molecular target: Neu5Ac(a2-3)Gal(b1-4)GlcNAc
How it was run: as §1

[10] = molecular target: Neu5Ac(a2-3)Gal(b1-4)GlcNAc(b1-2)Man
How it was run: as §1

[11] = molecular target: Neu5Ac(a2-3)Gal(b1-4)GlcNAc(b1-2)Man(a1-3)[GlcNAc(b1-4)][Neu5Ac(a2-3)Gal(b1-4)GlcNAc(b1-2)Man(a1-6)]Man(b1-4)GlcNAc(b1-4)GlcNAc
How it was run: as §1

[12] = molecular target: Neu5Ac(a2-3)Gal(b1-4)GlcNAc(b1-2)Man(a1-3)[Neu5Ac(a2-3)Gal(b1-4)GlcNAc(b1-2)Man(a1-6)]Man(b1-4)GlcNAc(b1-4)GlcNAc
How it was run: as §1

[13] = molecular target: Neu5Ac(a2-3)Gal(b1-4)GlcNAc(b1-2)Man(a1-3)[Neu5Ac(a2-3)Gal(b1-4)GlcNAc(b1-2)Man(a1-6)]Man(b1-4)GlcNAc(b1-4)[Fuc(a1-6)]GlcNAc
How it was run: as §1

[14] = molecular target: Neu5Ac(a2-3)Gal(b1-4)GlcNAc(b1-2)Man(a1-3)[Neu5Ac(a2-6)Gal(b1-4)GlcNAc(b1-2)Man(a1-6)]Man(b1-4)GlcNAc(b1-4)GlcNAc
How it was run: as §1

[15] = molecular target: Neu5Ac(a2-3)Gal(b1-4)GlcNAc(b1-2)[Neu5Ac(a2-3)Gal(b1-4)GlcNAc(b1-4)]Man(a1-3)[GlcNAc(b1-4)][Neu5Ac(a2-3)Gal(b1-4)GlcNAc(b1-2)[Neu5Ac(a2-3)Gal(b1-4)GlcNAc(b1-6)]Man(a1-6)]Man(b1-4)GlcNAc(b1-4)GlcNAc
How it was run: as §1

[16] = molecular target: Neu5Ac(a2-3)Gal(b1-4)GlcNAc(b1-2)[Neu5Ac(a2-3)Gal(b1-4)GlcNAc(b1-4)]Man(a1-3)[GlcNAc(b1-4)][Neu5Ac(a2-3)Gal(b1-4)GlcNAc(b1-4)Man(a1-6)]Man(b1-4)GlcNAc(b1-4)GlcNAc
How it was run: as §1

[17] = molecular target: Neu5Ac(a2-3)Gal(b1-4)GlcNAc(b1-2)[Neu5Ac(a2-3)Gal(b1-4)GlcNAc(b1-6)]Man(a1-6)[Neu5Ac(a2-3)Gal(b1-4)GlcNAc(b1-2)Man(a1-3)][GlcNAc(b1-4)]Man(b1-4)GlcNAc(b1-4)GlcNAc
How it was run: as §1

[18] = molecular target: Neu5Ac(a2-3)Gal(b1-4)GlcNAc(b1-3)Gal
How it was run: as §1

[19] = molecular target: Neu5Ac(a2-3)Gal(b1-4)GlcNAc(b1-3)Gal(b1-3)GlcNAc
How it was run: as §1

[20] = molecular target: Neu5Ac(a2-3)Gal(b1-4)GlcNAc(b1-3)Gal(b1-4)GlcNAc
How it was run: as §1

[21] = molecular target: Neu5Ac(a2-3)Gal(b1-4)GlcNAc(b1-3)Gal(b1-4)GlcNAc(b1-2)Man(a1-3)[Neu5Ac(a2-3)Gal(b1-4)GlcNAc(b1-3)Gal(b1-4)GlcNAc(b1-2)Man(a1-6)]Man(b1-4)GlcNAc(b1-4)GlcNAc
How it was run: as §1

[22] = molecular target: Neu5Ac(a2-3)Gal(b1-4)GlcNAc(b1-3)Gal(b1-4)GlcNAc(b1-3)Gal(b1-4)GlcNAc
How it was run: as §1

[23] = molecular target: Neu5Ac(a2-3)Gal(b1-4)GlcNAc(b1-3)Gal(b1-4)GlcNAc(b1-3)Gal(b1-4)GlcNAc(b1-2)Man(a1-3)[Neu5Ac(a2-3)Gal(b1-4)GlcNAc(b1-3)Gal(b1-4)GlcNAc(b1-3)Gal(b1-4)GlcNAc(b1-2)Man(a1-6)]GalNAc
How it was run: as §1

[24] = molecular target: Neu5Ac(a2-3)Gal(b1-4)GlcNAc(b1-3)Gal(b1-4)GlcNAc(b1-3)GalNAc
How it was run: as §1

[25] = molecular target: Neu5Ac(a2-3)Gal(b1-4)GlcNAc(b1-3)Gal(b1-4)GlcNAc(b1-3)[Neu5Ac(a2-3)Gal(b1-4)GlcNAc(b1-3)Gal(b1-4)GlcNAc(b1-6)]GalNAc
How it was run: as §1

[26] = molecular target: Neu5Ac(a2-3)Gal(b1-4)GlcNAc(b1-3)Gal(b1-4)GlcNAc(b1-6)[Gal(b1-3)]GalNAc
How it was run: as §1

[27] = molecular target: Neu5Ac(a2-3)Gal(b1-4)GlcNAc(b1-3)Gal(b1-4)[Fuc(a1-3)]GlcNAc
How it was run: as §1

[28] = molecular target: Neu5Ac(a2-3)Gal(b1-4)GlcNAc(b1-3)GalNAc
How it was run: as §1

[29] = molecular target: Neu5Ac(a2-3)Gal(b1-4)GlcNAc(b1-3)[Neu5Ac(a2-3)Gal(b1-4)GlcNAc(b1-6)]GalNAc
How it was run: as §1

[30] = molecular target: Neu5Ac(a2-3)Gal(b1-4)GlcNAc(b1-6)GalNAc
How it was run: as §1

[31] = molecular target: Neu5Ac(a2-3)Gal(b1-4)GlcNAc(b1-6)[Gal(b1-3)]GalNAc
How it was run: as §1

[32] = molecular target: Neu5Ac(a2-3)Gal(b1-4)GlcNAc(b1-6)[Neu5Ac(a2-3)Gal(b1-3)]GalNAc
How it was run: as §1

[33] = molecular target: Neu5Ac(a2-3)Gal(b1-4)GlcNAc6S
How it was run: as §1

[34] = molecular target: Neu5Ac(a2-3)Gal(b1-4)[Fuc(a1-3)]GlcNAc
How it was run: as §1

[35] = molecular target: Neu5Ac(a2-3)Gal(b1-4)[Fuc(a1-3)]GlcNAc(b1-2)Man
How it was run: as §1

[36] = molecular target: Neu5Ac(a2-3)Gal(b1-4)[Fuc(a1-3)]GlcNAc(b1-3)Gal
How it was run: as §1

[37] = molecular target: Neu5Ac(a2-3)Gal(b1-4)[Fuc(a1-3)]GlcNAc(b1-3)Gal(b1-4)GlcNAc
How it was run: as §1

[38] = molecular target: Neu5Ac(a2-3)Gal(b1-4)[Fuc(a1-3)]GlcNAc(b1-3)Gal(b1-4)[Fuc(a1-3)]GlcNAc(b1-3)Gal(b1-4)[Fuc(a1-3)]GlcNAc
How it was run: as §1

[39] = molecular target: Neu5Ac(a2-3)Gal(b1-4)[Fuc(a1-3)]GlcNAc(b1-3)GalNAc
How it was run: as §1

[40] = molecular target: Neu5Ac(a2-3)Gal(b1-4)[Fuc(a1-3)]GlcNAc(b1-6)[Gal(b1-3)]GalNAc
How it was run: as §1

[41] = molecular target: Neu5Ac(a2-3)Gal(b1-4)[Fuc(a1-3)]GlcNAc(b1-6)[Neu5Ac(a2-3)Gal(b1-3)]GalNAc
How it was run: as §1

[42] = molecular target: Neu5Ac(a2-3)Gal(b1-4)[Fuc(a1-3)]GlcNAc6S
How it was run: as §1

[43] = molecular target: Neu5Ac(a2-3)Gal6S(b1-4)GlcNAc
How it was run: as §1

[44] = molecular target: Neu5Ac(a2-3)Gal6S(b1-4)[Fuc(a1-3)]GlcNAc
How it was run: as §1

B1: Agalectin (Anopheles gambiae) (protein)
chain: MSNRPFTAKFPRYPENGDEVFIRGKLKDDAKSFSVNFCLPRPAQVAEHQTPPYIALHFKTIYDERDDTSRVVLNWKNLQWQQEEVLDNYWHVDRSQTFRVVFRLHEDCIKVFVNSVDHPPDYQFPVQLPLDQIESIELWDDVEHVEEISFRYDNGNSY
With B1 the “glycan array binding signal (z-score)” value [1] was 0.548, the “glycan array binding signal (z-score)” value [2] was 0.004 and the “glycan array binding signal (z-score)” value [3] was -0.399. The “glycan array binding signal (z-score)” value [4] was 0.198, the “glycan array binding signal (z-score)” value [5] was 0.456 and the “glycan array binding signal (z-score)” value [6] was 0.12. The “glycan array binding signal (z-score)” value [7] was 1.48, the “glycan array binding signal (z-score)” value [8] was -0.912 and the “glycan array binding signal (z-score)” value (Neu5Ac(a2-3)Gal(b1-4)Glc) was 0.149. For the same binder, the “glycan array binding signal (z-score)” value [9] was 0.023, the “glycan array binding signal (z-score)” value [10] was -0.7 and the “glycan array binding signal (z-score)” value [11] was -0.172. The “glycan array binding signal (z-score)” value [12] was -0.639, the “glycan array binding signal (z-score)” value [13] was -0.933 and the “glycan array binding signal (z-score)” value [14] was -0.631. For the same binder, the “glycan array binding signal (z-score)” value [15] was -0.065, the “glycan array binding signal (z-score)” value [16] was 0.93 and the “glycan array binding signal (z-score)” value [17] was 0.436. The “glycan array binding signal (z-score)” value [18] was -0.558, the “glycan array binding signal (z-score)” value [19] was 0.234 and the “glycan array binding signal (z-score)” value [20] was -0.337. The “glycan array binding signal (z-score)” value [21] was -0.317, the “glycan array binding signal (z-score)” value [22] was 1.16 and the “glycan array binding signal (z-score)” value [23] was 2.18. For the same binder, the “glycan array binding signal (z-score)” value [24] was -0.041, the “glycan array binding signal (z-score)” value [25] was 0.683 and the “glycan array binding signal (z-score)” value [26] was 2.16. For the same binder, the “glycan array binding signal (z-score)” value [27] was 0.62, the “glycan array binding signal (z-score)” value [28] was -0.499 and the “glycan array binding signal (z-score)” value [29] was 0.081. The “glycan array binding signal (z-score)” value [30] was -0.257, the “glycan array binding signal (z-score)” value [31] was -1.85 and the “glycan array binding signal (z-score)” value [32] was -1.23. The “glycan array binding signal (z-score)” value [33] was 1.06, the “glycan array binding signal (z-score)” value [34] was -0.881 and the “glycan array binding signal (z-score)” value [35] was 0.193. The “glycan array binding signal (z-score)” value [36] was -0.415, the “glycan array binding signal (z-score)” value [37] was -0.224 and the “glycan array binding signal (z-score)” value [38] was -0.913. For the same binder, the “glycan array binding signal (z-score)” value [39] was 1.97, the “glycan array binding signal (z-score)” value [40] was 0.357 and the “glycan array binding signal (z-score)” value [41] was 3.95. The “glycan array binding signal (z-score)” value [42] was 3.86, the “glycan array binding signal (z-score)” value [43] was -0.512 and the “glycan array binding signal (z-score)” value [44] was 1.06.
